We go through 18 substances from US20130066055A1 (Bayer Intellectual Property GmbH, priority 2011, published 2013).

One data set is described as follows: general procedure: solution-phase peptide synthesis; HATU/DIPEA or EDC/HOBt/DIPEA. The settings on record: coupling step, over 2 stages, trifluoroacetate.
Regarding “N-methyl-L-valyl-N-[(3R,4S,5S)-1-{(2S)-2-[(1R,2R)-3-{[(2S)-3-(1H-indol-3-yl)-1-(1,2-oxazinan-2-yl)-1-oxopropan-2-yl]amino}-1-methoxy-2-methyl-3-oxopropyl]pyrrolidin-1-yl}-3-methoxy-5-methyl-1-oxoheptan-4-yl]-N-methyl-L-valinamide”, the step yield is given as 67% over 2 stages.

Staying with this data set, now noted: coupling step, trifluoroacetate.
On to “N-[(9H-fluoren-9-ylmethoxy)carbonyl]-N-methyl-L-valyl-N-[(3R,4S,5S)-1-{(2S)-2-[(1R,2R)-2-carboxy-1-methoxypropyl]pyrrolidin-1-yl}-3-methoxy-5-methyl-1-oxoheptan-4-yl]-N-methyl-L-valinamide”, for which the step yield was 35% of theory.

As to “N-(tert-butoxycarbonyl)-N-methyl-L-valyl-N-[(3R,4S,5S)-1-{(2S)-2-[(1R,2R)-3-{[(2S)-1-(benzyloxy)-3-phenylpropan-2-yl]amino}-1-methoxy-2-methyl-3-oxopropyl]pyrrolidin-1-yl}-3-methoxy-5-methyl-1-oxoheptan-4-yl]-N-methyl-L-valinamide”, the step yield is 98% of theory.

The data set is the same for the next values; noted with them: late stage modification step, over 2 stages, trifluoroacetate.
Consider “N-(6-aminohexyl)-N-methyl-L-valyl-N-[(3R,4S,5S)-1-{(2S)-2-[(1R,2R)-3-{[(2S)-3-(4-hydroxyphenyl)-1-(1,2-oxazinan-2-yl)-1-oxopropan-2-yl]amino}-1-methoxy-2-methyl-3-oxopropyl]pyrrolidin-1-yl}-3-methoxy-5-methyl-1-oxoheptan-4-yl]”, for which the step yield is listed as 34% of theory over 2 stages.

Still in this data set, the particulars now being: late stage modification step, trifluoroacetate.
“N-methyl-L-valyl-N-[(3R,4S,5S)-1-{(2S)-2-[(1R,2R)-3-{[(2S)-1-(benzylsulphonyl)-3-phenylpropan-2-yl]amino}-1-methoxy-2-methyl-3-oxopropyl]pyrrolidin-1-yl}-3-methoxy-5-methyl-1-oxoheptan-4-yl]-N-methyl-L-valinamide trifluoroacetate”: the step yield is on record as 99% of theory.

As for “N-(tert-butoxycarbonyl)-N-methyl-L-valyl-N-[(3R,4S,5S)-1-{(2S)-2-[(1R,2R)-2-carboxy-1-methoxypropyl]pyrrolidin-1-yl}-3-methoxy-5-methyl-1-oxoheptan-4-yl]-N-methyl-L-valinamide”, the step yield is on record as 91% of theory.

Regarding “N-methyl-L-valyl-N-[(3R,4S,5S)-3-methoxy-1-{(2S)-2-[(1R,2R)-1-methoxy-2-methyl-3-{[(2S)-1-(2-oxa-3-azabicyclo[2.2.2]oct-5-en-3-yl)-1-oxo-3-phenylpropan-2-yl]amino}-3-oxopropyl]pyrrolidin-1-yl}-5-methyl-1-oxoheptan-4-yl]-N-methyl-L-valinamide trifluoroacetate”, the step yield is reported as 26% of theory.

In the case of “N-(5-carboxypentyl)-N-methyl-L-valyl-N-[(3R,4S,5S)-1-{(2S)-2-[(1R,2R)-3-{[(2S)-1-(benzyloxy)-1-oxo-3-phenylpropan-2-yl]amino}-1-methoxy-2-methyl-3-oxopropyl]pyrrolidin-1-yl}-3-methoxy-5-methyl-1-oxoheptan-4-yl]-N-methyl-L-valinamide”, the step yield is 75% of theory.

“N-methyl-L-valyl-N-[(3R,4S,5S)-1-{(2S)-2-[(1R,2R)-3-{[(2S,3E)-1,4-diphenylbut-3-en-2-yl]amino}-1-methoxy-2-methyl-3-oxopropyl]pyrrolidin-1-yl}-3-methoxy-5-methyl-1-oxoheptan-4-yl]-N-methyl-L-valinamide trifluoroacetate”: the step yield is reported as 99% of theory.

In the case of “N-{6-[(bromoacetyl)amino]hexyl}-N-methyl-L-valyl-N-[(3R,4S,5S)-1-{(2S)-2-[(1R,2R)-3-{[(2S)-3-(1H-indol-3-yl)-1-(1,2-oxazinan-2-yl)-1-oxopropan-2-yl]amino}-1-methoxy-2-methyl-3-oxopropyl]pyrrolidin-1-yl}-3-methoxy-5-methyl-1-oxoheptan-4-yl]-N-methyl-L-valinamide”, the step yield was 26% of theory.

For the substance “N-(3-carboxypropyl)-N-methyl-L-valyl-N-[(3R,4S,5S)-3-methoxy-1-{(2S)-2-[(1R,2R)-1-methoxy-2-methyl-3-oxo-3-{[(2R)-1-phenyl-4-(4-sulphophenyl)butan-2-yl]amino}propyl]pyrrolidin-1-yl}-5-methyl-1-oxoheptan-4-yl]-N-methyl-L-valinamide”, the “final purity (method not given)” value worked out at 90% purity and the step yield is 66% of theory.

As to “N-(3-carboxypropyl)-N-methyl-L-valyl-N-[(3R,4S,5S)-3-methoxy-1-{(2S)-2-[(1R,2R)-1-methoxy-2-methyl-3-oxo-3-{[(2S,3E)-1-phenyl-4-(4-sulphophenyl)but-3-en-2-yl]amino}propyl]pyrrolidin-1-yl}-5-methyl-1-oxoheptan-4-yl]-N-methyl-L-valinamide”, the “final purity (method not given)” value turned out to be 83% purity and the step yield was 80% of theory.

Regarding “N-[(3R,4S,5S)-1-{(2S)-2-[(1R,2R)-3-{[(2S)-3-(1H-indol-3-yl)-1-(1,2-oxazinan-2-yl)-1-oxopropan-2-yl]amino}-1-methoxy-2-methyl-3-oxopropyl]pyrrolidin-1-yl}-3-methoxy-5-methyl-1-oxoheptan-4-yl]-N-methyl-L-valinamide”, the step yield is 87% of theory.

Take “N-methyl-L-valyl-N-[(3R,4S,5S)-3-methoxy-1-{(2S)-2-[(1R,2R)-1-methoxy-2-methyl-3-{[(1S,2R)-1-(1,2-oxazinan-2-ylcarbonyl)-2-phenylcyclopropyl]amino}-3-oxopropyl]pyrrolidin-1-yl}-5-methyl-1-oxoheptan-4-yl]-N-methyl-L-valinamide trifluoroacetate”: the step yield was 64% of theory.

In the case of “N-(tert-butoxycarbonyl)-N-methyl-L-valyl-N-[(3R,4S,5S)-1-{(2S)-2-[(1R,2R)-3-{[(1S)-1-carboxy-2-phenylethyl]amino}-1-methoxy-2-methyl-3-oxopropyl]pyrrolidin-1-yl}-3-methoxy-5-methyl-1-oxoheptan-4-yl]-N-methyl-L-valinamide”, the step yield is 94% of theory.

“N-(5-carboxypentyl)-N-methyl-L-valyl-N-[(3R,4S,5S)-3-methoxy-1-{(2S)-2-[(1R,2R)-1-methoxy-2-methyl-3-oxo-3-{[(1S)-2-phenyl-1-(5-phenyl-1,3,4-oxadiazol-2-yl)ethyl]amino}propyl]pyrrolidin-1-yl}-5-methyl-1-oxoheptan-4-yl]”: the step yield was 74% of theory.

As to “N-methyl-L-valyl-N-[(3R,4S,5S)-1-{(2S)-2-[(1R,2R)-3-{[(1S,2R)-1-hydroxy-1-phenylpropan-2-yl]amino}-1-methoxy-2-methyl-3-oxopropyl]pyrrolidin-1-yl}-3-methoxy-5-methyl-1-oxoheptan-4-yl]-N-methyl-L-valinamide”, the step yield came out at 52%.

“N-{4-[(2,5-dioxopyrrolidin-1-yl)oxy]-4-oxobutyl}-N-methyl-L-valyl-N-[(3R,4S,5S)-3-methoxy-1-{(2S)-2-[(1R,2R)-1-methoxy-2-methyl-3-oxo-3-{[(2R)-1-phenyl-4-(4-sulphophenyl)butan-2-yl]amino}propyl]pyrrolidin-1-yl}-5-methyl-1-oxoheptan-4-yl]-N-methyl-L-valinamide”: the “final purity (method not given)” value was found to be 72% purity and the step yield is listed as 25% of theory.
